Reference: publication PMC6199744, “Development of Chemical Proteomics for the Folateome and Analysis of the Kinetoplastid Folateome” (ACS Infectious Diseases, 2018)
This continues a long series; more values of the same kind are listed elsewhere.

Tested on: L. major lysate proteins
Test: Multitargeted bead mixture chemoproteomics, single concentration competition, proteome-wide
Type: binding
Conditions: for fold change: vehicle control = 1

## Nc1nc2[nH]cc(CCc3ccc(C(=O)N[C@@H](CCC(=O)O)C(=O)O)cc3)c2c(=O)[nH]1 [PTX, pemetrexed]
Protein LINJ.01.0790 […] 4A, PUTATIVE
  fold change: 0.95
Protein LINJ.03.0940 HY[…], CONSERVED
  fold change: 0.88
Protein LINJ.05.0070 DYNEIN LIGHT CHAIN, PUTATIVE
  fold change: 0.98
Protein LINJ.07.0210 CYTOCHROME C1, HEME PROTEIN, MIT[…], PUTATIVE
  fold change: 0.82
Protein LINJ.09.0030 HY[…], CONSERVED
  fold change: 0.94
Protein LINJ.13.1460 ALPHA TUBULIN
  fold change: 0.99
Protein LINJ.15.0090 HEAT SHOCK PROTEIN HSLVU, ATPASE SUBUNIT HSLU, PUTATIVE
  fold change: 1.07
Protein LINJ.19.0140 PROTEIN KINASE, PUTATIVE,MITOGEN-ACTIVATED PROTEIN KINASE, PUTATIVE
  fold change: 0.81
Protein LINJ.19.0300 RNA BINDING PROTEIN
  fold change: 0.87
Protein LINJ.21.0900 HY[…], CONSERVED
  fold change: 0.88
Protein LINJ.25.1460 GTP-BINDING PROTEIN, PUTATIVE
  fold change: 0.94
Protein LINJ.25.2170 HY[…], CONSERVED
  fold change: 0.86
Protein LINJ.26.0840 40S RIBOSOMAL PROTEIN S16, PUTATIVE
  fold change: 1.06
Protein LINJ.26.1080 HY[…], CONSERVED
  fold change: 0.93
Protein LINJ.27.1150 T-COMPLEX PROTEIN 1, BETA SUBUNIT, PUTATIVE
  fold change: 1.03
Protein LINJ.28.1310 GLUCOSE-REGULATED PROTEIN 78, PUTATIVE
  fold change: 0.97
Protein LINJ.29.0110 HY[…], CONSERVED
  fold change: 0.96
Protein LINJ.29.0770 P[…] SIGNAL TYPE 2 RECEPTOR, PUTATIVE
  fold change: 0.93
Protein LINJ.32.2960 […]-ATP-ASE SUBUNIT, PUTATIVE
  fold change: 0.98
Protein LINJ.32.3230 PROTEIN PHOSPHATASE 2A CATALYTIC SUBUNIT, PUTATIVE
  fold change: 0.98
Protein LINJ.33.0350 HEAT SHOCK PROTEIN 83-1
  fold change: 1.05
Protein LINJ.36.2140 CHAPERONIN HSP60, MIT[…]
  fold change: 1
Protein LINJ.36.7350 CYTOCHROME C OXIDASE SUBUNIT I
  fold change: 1.01
Protein LMJF.02.0450 VOLTAGE-DEPENDENT ANION-SELECTIVE CHANNEL, PUTATIVE
  fold change: 1.02
Protein LMJF.02.0460 HY[…], CONSERVED
  fold change: 0.97
Protein LMJF.03.0630 HY[…], CONSERVED
  fold change: 1.02
Protein LMJF.05.0030 RAS-LIKE SMALL GTPASES, PUTATIVE
  fold change: 1.05
Protein LMJF.06.0140 […] 6 SUBUNIT, PUTATIVE
  fold change: 0.84
Protein LMJF.06.0880 ACYL-COENZYME A DEHYDROGENASE, PUTATIVE
  fold change: 0.99
Protein LMJF.07.0270 ACETYLORNITHINE DEACETYLASE-LIKE PROTEIN
  fold change: 0.97
Protein LMJF.07.0340 ATP-DEPENDENT DEAD/H RNA HELICASE, PUTATIVE
  fold change: 1.14
Protein LMJF.07.0640 HY[…], CONSERVED
  fold change: 0.95
Protein LMJF.07.1050 CATION-TR[…], PUTATIVE
  fold change: 0.89
Protein LMJF.08.1110 STRESS-INDUCED PROTEIN STI1
  fold change: 0.96
Protein LMJF.09.0970 […]-1 GAMMA
  fold change: 1.02
Protein LMJF.10.1010 NUCLEOSIDE PHOSPHORYLASE-LIKE PROTEIN
  fold change: 1.18
Protein LMJF.10.1240 HY[…], CONSERVED
  fold change vs vehicle control: 0.89
Protein LMJF.11.0220 PTERIN-4-ALPHA-CARBINOLAMINE DEHYDRATASE, PUTATIVE
  fold change: 0.92
Protein LMJF.11.0240 […] 7 SUBUNIT, PUTATIVE
  fold change: 0.94
Protein LMJF.11.0350 14-3-3 PROTEIN, PUTATIVE
  fold change: 0.94
Protein LMJF.11.0550 NUCLEOBASE TRANSPORTER
  fold change: 1.1
Protein LMJF.11.1000 PYRUVATE PHOSPHATE DIKINASE, PUTATIVE
  fold change: 1.01
Protein LMJF.12.0280 ORNITHINE DECARBOXYLASE, PUTATIVE
  fold change: 0.94
Protein LMJF.12.0670 CYTOCHROME C OXIDASE SUBUNIT IV
  fold change: 0.99
Protein LMJF.12.1130 NADH:FLAVIN OXIDOREDUCTASE/NADH OXIDASE, PUTATIVE
  fold change: 0.92
Protein LMJF.12.1270 ARGININE N-METHYLTRANSFERASE-LIKE PROTEIN
  fold change: 0.84
Protein LMJF.13.0450 HY[…], CONSERVED
  fold change vs vehicle control: 0.91
Protein LMJF.13.0570 40S RIBOSOMAL PROTEIN S12, PUTATIVE
  fold change: 0.92
Protein LMJF.13.0870 MIT[…] ALPHA SUBUNIT, PUTATIVE
  fold change: 1.03
Protein LMJF.13.1190 ADENYL[…], PUTATIVE
  fold change: 0.86
Protein LMJF.13.1660 CHAPERONIN TCP20, PUTATIVE
  fold change: 1.03
Protein LMJF.14.0190 HY[…], CONSERVED
  fold change: 1.05
Protein LMJF.14.0460 CYS[…]-LYASE-LIKE PROTEIN
  fold change: 1.01
Protein LMJF.14.0650 FATTY ACID ELONGASE, PUTATIVE
  fold change: 0.94
Protein LMJF.15.0230 LYSYL-TRNA SYNTHETASE, PUTATIVE
  fold change: 0.97
Protein LMJF.15.1160 TR[…]
  fold change: 0.95
Protein LMJF.15.1440 GLUTAMINYL-TRNA SYNTHETASE, PUTATIVE
  fold change: 0.94
Protein LMJF.16.0960 HY[…], CONSERVED (methyltransferase domain containing protein, putative)
  fold change: 1.19
Protein LMJF.16.1427 PAR[…] PROTEIN 2C
  fold change vs vehicle control: 0.94
Protein LMJF.17.0980 HY[…], CONSERVED (Mak10 subunit, NatC N(alpha)-terminal acetyltransferase, putative)
  fold change: 1.03
Protein LMJF.18.0450 SERINE CARBOXYPEPTIDASE (CBP1), PUTATIVE
  fold change: 0.93
Protein LMJF.18.0510 ACONITASE, PUTATIVE
  fold change: 1.03
Protein LMJF.18.0740 […] TU, PUTATIVE
  fold change: 0.98
Protein LMJF.18.1380 PYRUVATE DEHYDROGENASE E1 COMPONENT ALPHA SUBUNIT, PUTATIVE
  fold change: 0.99
